# These are yes or no findings as the source states them, for the method shown. Binding seen in cells or lysates may run through a third protein. Here binding means that the protein was enriched with, or labelled near, the bait; the list need not be complete.
# B1: ZDHHC13 (protein, UniProt Q8IUH4 1-622)
# chain: MEGPGLGSQCRNHSHGPHPPGFGRYGICAHENKELANAREALPLIEDSSNCDIVKATQYGIFERCKELVEAGYDVRQPDKENVSLLHWAAINNRLDLVKFYISKGAVVDQLGGDLNSTPLHWAIRQGHLPMVILLLQHGADPTLIDGEGFSSIHLAVLFQHMPIIAYLISKGQSVNMTDVNGQTPLMLSAHKVIGPEPTGFLLKFNPSLNVVDKIHQNTPLHWAVAAGNVNAVDKLLEAGSSLDIQNVKGETPLDMALQNKNQLIIHMLKTEAKMRANQKFRLWRWLQKCELFLLLMLSVITMWAIGYILDFNSDSWLLKGCLLVTLFFLTSLFPRFLVGYKNLVYLPTAFLLSSVFWIFMTWFILFFPDLAGAPFYFSFIFSIVAFLYFFYKTWATDPGFTKASEEEKKVNIITLAETGSLDFRTFCTSCLIRKPLRSLHCHVCNCCVARYDQHCLWTGRCIGFGNHHYYIFFLFFLSMVCGWIIYGSFIYLSSHCATTFKEDGLWTYLNQIVACSPWVLYILMLATFHFSWSTFLLLNQLFQIAFLGLTSHERISLQKQSKHMKQTLSLRKTPYNLGFMQNLADFFQCGCFGLVKPCVVDWTSQYTMVFHPAREKVLRSV
# Target: FlagBirA*-NRAS (human) (UniProt P01111)
# Test: proximity labelling; BioID: FlagBirA*-RAS bait in Flp-In T-REx 293 cells, 1 µg/mL tetracycline and 50 µM biotin for 24 h; modified RIPA lysis, Streptavidin Sepharose capture, trypsin, LC-MS/MS; hits at SAINT score ≥ 0.75; labelling radius ~10 nm
binder,measurement,value
B1,binding,binds

# Reference: paper PMC7696408
